## Primary screen of a compound library

By UniProt entry, the sequences of proteins in these tests, tags left out. Residues count along the entry.
UniProt A4I591, 1-473: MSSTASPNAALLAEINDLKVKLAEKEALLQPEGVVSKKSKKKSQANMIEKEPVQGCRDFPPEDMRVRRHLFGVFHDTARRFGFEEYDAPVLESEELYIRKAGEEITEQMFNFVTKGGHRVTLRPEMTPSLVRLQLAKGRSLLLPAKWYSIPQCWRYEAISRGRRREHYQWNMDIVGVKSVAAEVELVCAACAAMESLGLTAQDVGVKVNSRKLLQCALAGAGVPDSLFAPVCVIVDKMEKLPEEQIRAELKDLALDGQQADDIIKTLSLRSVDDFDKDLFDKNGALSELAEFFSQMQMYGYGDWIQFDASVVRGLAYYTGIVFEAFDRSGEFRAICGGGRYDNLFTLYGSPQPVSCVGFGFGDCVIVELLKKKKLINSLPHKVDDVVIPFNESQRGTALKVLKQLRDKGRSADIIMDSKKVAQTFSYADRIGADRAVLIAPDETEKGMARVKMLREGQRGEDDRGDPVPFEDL
UniProt Q4DA54, 1-478: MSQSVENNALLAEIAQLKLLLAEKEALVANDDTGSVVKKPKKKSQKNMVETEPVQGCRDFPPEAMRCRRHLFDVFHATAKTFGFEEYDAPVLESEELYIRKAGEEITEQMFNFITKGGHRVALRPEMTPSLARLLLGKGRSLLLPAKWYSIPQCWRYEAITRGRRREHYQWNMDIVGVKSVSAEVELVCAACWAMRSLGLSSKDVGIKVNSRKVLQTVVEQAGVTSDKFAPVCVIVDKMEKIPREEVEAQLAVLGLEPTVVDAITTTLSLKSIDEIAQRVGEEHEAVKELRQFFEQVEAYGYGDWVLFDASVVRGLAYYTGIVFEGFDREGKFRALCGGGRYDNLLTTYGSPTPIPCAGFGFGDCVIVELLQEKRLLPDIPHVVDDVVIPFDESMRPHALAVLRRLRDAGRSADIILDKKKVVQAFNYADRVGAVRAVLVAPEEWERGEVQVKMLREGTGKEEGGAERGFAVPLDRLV
UniProt Q8IDJ8, 1-583: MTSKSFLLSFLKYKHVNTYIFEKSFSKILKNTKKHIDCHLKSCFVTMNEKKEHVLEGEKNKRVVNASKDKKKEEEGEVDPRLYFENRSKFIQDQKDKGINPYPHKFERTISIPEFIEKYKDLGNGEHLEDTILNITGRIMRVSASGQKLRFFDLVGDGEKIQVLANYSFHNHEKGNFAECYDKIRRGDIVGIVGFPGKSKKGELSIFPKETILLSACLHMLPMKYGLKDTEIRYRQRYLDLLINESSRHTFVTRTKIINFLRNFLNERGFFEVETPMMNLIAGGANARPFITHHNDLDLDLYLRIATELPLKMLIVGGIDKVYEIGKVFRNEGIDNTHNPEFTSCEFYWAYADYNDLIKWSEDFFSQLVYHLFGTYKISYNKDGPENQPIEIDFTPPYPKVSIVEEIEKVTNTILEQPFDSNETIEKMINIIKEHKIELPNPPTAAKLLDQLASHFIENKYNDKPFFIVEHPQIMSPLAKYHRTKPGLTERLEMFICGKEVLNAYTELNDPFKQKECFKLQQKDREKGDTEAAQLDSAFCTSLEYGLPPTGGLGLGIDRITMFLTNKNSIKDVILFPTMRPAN

LiHisRS: 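Enzyme assay of histidyl-tRNA synthetase; the read-out is not stated. Target: Histidine-tRNA ligase, Leishmania infantum (UniProt A4I591). Compounds at 30 µM. Higher reads as stronger inhibition (inferred: compounds with an IC50 in retests scored well above the rest). The assay is labelled LdHisRS but filed under L. infantum. About 69,000 compounds were tested under these conditions; 0.6% (about 410) showed 50% or more at least once.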
TcHisRS: 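Histidine-tRNA ligase, Trypanosoma cruzi CL Brener (UniProt Q4DA54). Enzyme assay of histidyl-tRNA synthetase; the read-out is not stated. Tested at 30 µM. Direction is inferred from retests: higher values go with stronger inhibition. Of about 69,000 compounds tested this way, about 31 (0.045%) reached 50% or more in at least one test.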
PfKRS1: 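Enzyme assay of the cytosolic lysyl-tRNA synthetase in 384-well plates, read by luminescence. Target: Lysine-tRNA ligase, Plasmodium falciparum 3D7 (UniProt Q8IDJ8). Tested at 30 µM. Direction is inferred from only a few compounds that gave an IC50; most scored high, so higher reads as stronger inhibition. About 69,000 compounds were tested under these conditions; 0.071% (about 49) showed 50% or more at least once.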
Leishmania in macrophages: 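Cell assay of Leishmania donovani living inside macrophages; the read-out is not stated. Concentration: 30 µM. The record gives no direction; compounds that gave an IC50 in retests scored well above the rest, so higher reads as stronger inhibition. Size under these conditions: about 69,000 compounds, about 1,000 of them at 50% or above in at least one test.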

Values are the deposited “Percent Effect”, in %. How 0% and 100% were set is not recorded. Most values in the screen are low, and negative values occur. This is an unselected part of the compounds tested. Two or more numbers in one place are separate tests of the same structure; such repeats can differ widely. A dash means the value is not listed here; it may have been measured.

| SMILES | LiHisRS | TcHisRS | PfKRS1 | Leishmania in macrophages |
|---|---|---|---|---|
| `Cn1ccnc1S(=O)(=O)C(C(=O)N1CCCCC1)c1ccccc1` (stereo not drawn) | -5.618 | 1.554 | -3.442 | -11.58 |
| `O=C(Cc1ccccc1)N1CCC2(CC1)COCCN2CC1CC1.O=C(O)C(F)(F)F` | - | - | - | 21.41 |
| `CN(Cc1cc2cc(F)ccc2[nH]1)C(=O)C1CC(=O)N(C2CC2)C1` (stereo not drawn) | 13.11 | 5.579 | 4.1 | 14.52 |
| `O=C(O)C(F)(F)F.[H][C@@]12COC[C@@H](C(=O)N3CCCO3)[C@]1([H])CN(C1CCCC1)C2` | - | - | - | 21.01 |
| `CCN(CC1COc2ccccc2O1)C(=O)NCCCn1cncn1` (stereo not drawn) | 19.64 | 7.101 | 0.4737 | 33.85 |
| `Cc1nc(C(=O)N(C)CC(F)(F)C(F)(F)F)c2ccccn12` | 19.84 | 9.412 | 2.449 | 8.721 |
| `CC(=O)N1CCC2(CC1)c1ncc(-c3ccccc3)n1CCN2C(C)=O` | 14 | 1.149 | 5.291 | 17.75 |
| `CN(C)C(=O)N1CCN(Cc2noc(Cc3ccccc3)n2)CC1` | 5.618 | 1.504 | -0.6044 | 29.36 |
| `O=S(=O)(NCC1(O)CCOc2ccccc21)c1ccc(Cl)s1` (stereo not drawn) | 8.264 | 2.041 | 7.796 | 35.74 |
| `CCc1nc(CN2CCCC(NCc3nc(C)c(C)o3)C2)no1` (stereo not drawn) | 16.81 | 4.956 | 1.747 | 2.516 |
| `Cc1cc(CNCc2c(C(C)C)nn(C)c2N2CCOCC2)no1` | -6.024 | 2.439 | -7.072 | -34.76 |
| `N#Cc1ccc(C(=O)NS(=O)(=O)c2ccc(C#N)c(Cl)c2)cc1` | 39.39 | 4.516 | 4.449 | 26 |
| `COc1ccc(C)nc1NC(=O)Cc1c(C)nn(C)c1C` | 2.073 | -0.5525 | 2.639 | 1.753 |
| `CSCCC(NC(N)=O)C(=O)NCc1cnn(-c2ccccc2)c1` (stereo not drawn) | 17.65 | 6.173 | 5.728 | 34.59 |
| `Cc1nc2sccn2c1C(=O)N1CCc2c(nc(N)[nH]c2=O)C1` | 14.67 | 7.514 | 3.644 | -3.465 |
| `c1cnnc(N2CCCC2CNc2ncnc3ccccc23)c1` (stereo not drawn) | 40.54 | 26.69 | 2.226 | 24.15 |
| `O=C(O)C(F)(F)F.O=C(O)C(F)(F)F.[H][C@@]12CN(Cc3nccs3)CCC[C@]1(C(=O)OCC)CN(CCOC)C2` | - | - | - | -6.059 and -5.243 |
| `CNCC(=O)N1CCCC(c2cccc(Nc3nc(C)cc(C)n3)n2)C1` (stereo not drawn) | 13.89 | 0.5405 | 3.491 | 28.98 |
| `COc1ccc(CCN2CC(c3nc(CSC)no3)CCC2=O)cc1` (stereo not drawn) | -4.167 | 5.587 | 1.713 | 9.48 |
| `CCCn1[nH]cc/c1=N\C(=O)CN1CCc2c(nc(C(C)C)n2C)C1` | 16 | -1.887 | 2.246 | 16.42 |
| `CCCc1noc(CCC(=O)N2CCCCC2Cn2cc(C)cn2)n1` (stereo not drawn) | 6.849 | 7 | 4.354 | 14.99 |
| `O=C(NC1CCCN(CCCc2ccccc2)C1)C1=CCCCC1` (stereo not drawn) | 17.98 | 5.528 | 3.314 | -11.19 |
| `Cc1cnn(CC2CN(Cc3nccn3C)CCO2)c1` (stereo not drawn) | 6.154 | 1.149 | 5.107 | 1.269 |
| `Fc1ccc(-c2n[nH]cc2CNCCn2cccn2)cc1` | -76.11 | 5.263 | 2.587 | -21.05 |
| `COc1ccc(C(C(=O)O)N2CCCN(C3CCCC3)CC2)cc1OC` (stereo not drawn) | 0 | 3.39 | -4.301 | 3.231 |
| `COCCN(C)C[C@@H]1CN(c2nnc(C(C)C)s2)C[C@@H]1CO` | 5 | 3.896 | 4.121 | -16.94 |
| `CCN1CCCN(C(=O)c2cnc(OC(C)C)c(Cl)c2)CC1` | 0 | 4.132 | -10.62 | 1.456 |
| `Cc1cc(NC(=O)C(C)N2CCN(c3nc(C)ns3)CC2)on1` (stereo not drawn) | 11.32 | 0 | -1.404 | -11.03 |
| `CCCN1CC[C@@H]2OC[C@H](C(=O)Nc3cccnc3)C[C@@H]2C1` | 6.944 | 1.905 | -0.02359 | - |
| `[H][C@@]12CN(C(=O)NC3CCCCC3)C[C@]1([H])OCCN2C(=O)c1ccco1` | - | - | - | -5.312 |
| `COc1ccc2c(c1)OC1(CCN(Cc3cccc(C)c3)CC1)CC2=O` | 5.941 | 0 | 0.9458 | 33.86 |
| `Cc1ccc(CN2Cc3nccn3CC(Cn3cccn3)C2)s1.O=C(O)C(F)(F)F` (stereo not drawn) | - | - | - | 31.25 |
| `Cc1cnccc1-n1nc(C(C)C)nc1CS(C)(=O)=O` | 15.83 | 5.263 | 5.566 | 18.88 |
| `COc1cccc(N2CCN(Cc3ccc4ccn(C)c4c3)CC2=O)c1` | 6.742 | 21.61 | 4.152 | 30.89 |
| `CCCN(C(=O)c1ocnc1C)C1CCCN(Cc2ccccc2)C1` (stereo not drawn) | 19.18 | 13.11 | 3.491 | 1.766 |
| `Cc1cncc(C(=O)N2CCC3(CCCN(c4nncs4)C3)C2)c1.O=C(O)C(F)(F)F` (stereo not drawn) | - | - | - | 38.03 |
| `Fc1cnc(N2CCC3(CC2)CN(Cc2cccs2)CCO3)nc1` | 3.846 | 2.793 | 2.23 | - |
| `COc1ccc(C(=O)Nc2cccc(C(N)=O)c2)c(OC)n1` | 7.921 | 9.091 | 4.06 | 14.5 |
| `Cc1cc(C)n(CCCN(C)c2cc(C3CC3)ncn2)n1` | 11.67 | -1.739 | 8.138 | 19.06 |
| `CC(NC(=O)CCC(C)(C)C)C(=O)Nc1ccc(-n2cncn2)cc1` (stereo not drawn) | 22.22 | 0.6135 | 1.283 | 40.93 |
| `CCc1ccc(N2CCC(NS(=O)(=O)N(CC)CC)CC2)cc1` | 7.254 | 8.287 | 1.23 | 8.106 |
| `O[C@@H]1C[C@@](CNCc2ccc(F)cc2)(COc2cccnc2)C[C@@H]1O` | 12.16 | 6.522 | 0.02522 | - |
| `O=C(c1ccncc1)N1CCC(Oc2cccc(C(F)(F)F)c2)CC1` | 17.05 | 14.29 | 7 | 7.291 |
| `O=C(Nc1ccccc1Cn1cccn1)N1CCC(N2CCCC2)C1` (stereo not drawn) | 8.333 | 9.392 | 2.556 | 5.931 |
| `O=C1CSc2ccc(C(=O)N3CCCC(n4cccn4)C3)cc2N1` (stereo not drawn) | 14.29 | 10.31 | 5.288 | 5.965 |
| `CNc1c(NCc2ccco2)c(=O)c1=O` | 13.04 | 2 | 8.609 | 23.43 |
| `CC(C)C1CN(C(=O)c2cc(F)cc3[nH]cnc23)CCS1` (stereo not drawn) | 19.57 | 2.97 | 7.178 | 37.23 |
| `COCC1CN(Cc2ccoc2)Cc2nn(CC3CC3)cc21` (stereo not drawn) | -12.82 | -2.439 | -10.55 | - |
| `COc1nn(C)cc1C(=O)N1CCC(c2ccccc2)C1` (stereo not drawn) | 10.96 | 7 | -0.5954 | -16.44 |
| `CN1C(=O)C2(CCN(C(=O)C3CCOCC3)CC2)c2ccccc21` | 7.692 | 1.942 | 0.2529 | 12.86 |
| `COc1ccc(CN2C[C@H](O)C[C@H]2c2nc(-c3ccccc3)no2)cc1` | -16.67 | 1.493 | -4.343 | -8.575 |
| `COc1ccccc1C(O)CNC(=O)NCc1csc(C)n1` (stereo not drawn) | 16.36 | 7.602 | 0.9491 | 13.65 |
| `O=C1OCCN1CCNC(=O)C1(N2CCCCC2)Cc2ccccc2C1` | 4.819 | 3.867 | 1.389 | -0.7742 |

For reference, 5 entries once more:

SMILES	LiHisRS	TcHisRS	PfKRS1	Leishmania in macrophages
CC(C)C1CN(C(=O)c2cc(F)cc3[nH]cnc23)CCS1 (stereo not drawn)	19.57	2.97	7.178	37.23
COCC1CN(Cc2ccoc2)Cc2nn(CC3CC3)cc21 (stereo not drawn)	-12.82	-2.439	-10.55	-
O=C(Nc1ccccc1Cn1cccn1)N1CCC(N2CCCC2)C1 (stereo not drawn)	8.333	9.392	2.556	5.931
c1cnnc(N2CCCC2CNc2ncnc3ccccc23)c1 (stereo not drawn)	40.54	26.69	2.226	24.15
CCc1ccc(N2CCC(NS(=O)(=O)N(CC)CC)CC2)cc1	7.254	8.287	1.23	8.106

From ChEMBL document CHEMBL3988442, “University of Dundee, Small-Polar-MMV Screening Library” (2021).